These results are taken from the supplement of paper PMC10032668.

Chains of the proteins cited; added tags and fusions are not shown.
DDX54, Q8TDD1, UniProt Q8TDD1, whole entry: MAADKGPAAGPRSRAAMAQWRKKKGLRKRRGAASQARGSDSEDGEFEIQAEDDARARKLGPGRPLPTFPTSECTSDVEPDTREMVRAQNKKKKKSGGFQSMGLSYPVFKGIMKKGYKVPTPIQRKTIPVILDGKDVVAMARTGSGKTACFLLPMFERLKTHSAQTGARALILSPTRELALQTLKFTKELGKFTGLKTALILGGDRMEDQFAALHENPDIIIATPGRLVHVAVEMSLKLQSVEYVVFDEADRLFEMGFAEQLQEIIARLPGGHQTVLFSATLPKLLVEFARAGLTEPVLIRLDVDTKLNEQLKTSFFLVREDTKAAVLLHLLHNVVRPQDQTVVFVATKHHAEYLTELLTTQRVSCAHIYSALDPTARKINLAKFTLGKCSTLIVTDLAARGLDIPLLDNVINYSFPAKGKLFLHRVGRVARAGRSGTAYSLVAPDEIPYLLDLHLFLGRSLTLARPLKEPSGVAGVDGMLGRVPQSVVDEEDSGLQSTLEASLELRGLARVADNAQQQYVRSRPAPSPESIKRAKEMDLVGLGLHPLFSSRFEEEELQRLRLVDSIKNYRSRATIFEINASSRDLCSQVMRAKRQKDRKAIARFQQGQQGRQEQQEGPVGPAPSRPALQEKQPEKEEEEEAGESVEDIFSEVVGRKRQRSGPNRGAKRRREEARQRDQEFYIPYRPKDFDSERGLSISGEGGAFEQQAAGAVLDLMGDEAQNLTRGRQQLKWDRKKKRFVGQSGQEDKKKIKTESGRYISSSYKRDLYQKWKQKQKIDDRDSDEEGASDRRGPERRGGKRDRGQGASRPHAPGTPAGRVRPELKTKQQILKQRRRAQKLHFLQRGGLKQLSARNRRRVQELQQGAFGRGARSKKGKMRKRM
DYNLRB1, Q9NP97, UniProt Q9NP97, whole entry: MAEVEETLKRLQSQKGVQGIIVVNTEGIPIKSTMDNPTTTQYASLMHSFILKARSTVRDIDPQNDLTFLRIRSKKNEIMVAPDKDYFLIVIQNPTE
PHAX, Q9H814, UniProt Q9H814, whole entry: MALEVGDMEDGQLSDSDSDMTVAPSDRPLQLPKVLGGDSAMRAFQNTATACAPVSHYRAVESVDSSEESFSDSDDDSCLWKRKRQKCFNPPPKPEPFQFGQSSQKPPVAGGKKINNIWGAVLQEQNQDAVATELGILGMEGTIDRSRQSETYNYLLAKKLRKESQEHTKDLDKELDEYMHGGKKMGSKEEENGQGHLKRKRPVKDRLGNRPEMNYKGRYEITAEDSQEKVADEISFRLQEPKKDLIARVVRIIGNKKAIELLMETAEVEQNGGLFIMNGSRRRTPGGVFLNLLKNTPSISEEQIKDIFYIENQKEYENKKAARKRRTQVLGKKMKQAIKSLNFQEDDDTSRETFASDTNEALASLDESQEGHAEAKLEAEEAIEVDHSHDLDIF
TWF1, Q12792, UniProt Q12792, whole entry: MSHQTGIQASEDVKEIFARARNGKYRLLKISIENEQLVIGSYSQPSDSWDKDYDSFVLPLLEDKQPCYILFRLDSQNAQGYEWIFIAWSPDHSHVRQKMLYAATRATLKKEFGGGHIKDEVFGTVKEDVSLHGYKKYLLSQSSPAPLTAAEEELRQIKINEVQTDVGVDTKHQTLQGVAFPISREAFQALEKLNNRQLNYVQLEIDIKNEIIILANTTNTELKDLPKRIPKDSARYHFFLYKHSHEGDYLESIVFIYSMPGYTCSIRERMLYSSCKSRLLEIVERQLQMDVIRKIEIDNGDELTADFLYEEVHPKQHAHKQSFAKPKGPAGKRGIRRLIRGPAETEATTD
ANAPC1, Q9H1A4, UniProt Q9H1A4, whole entry: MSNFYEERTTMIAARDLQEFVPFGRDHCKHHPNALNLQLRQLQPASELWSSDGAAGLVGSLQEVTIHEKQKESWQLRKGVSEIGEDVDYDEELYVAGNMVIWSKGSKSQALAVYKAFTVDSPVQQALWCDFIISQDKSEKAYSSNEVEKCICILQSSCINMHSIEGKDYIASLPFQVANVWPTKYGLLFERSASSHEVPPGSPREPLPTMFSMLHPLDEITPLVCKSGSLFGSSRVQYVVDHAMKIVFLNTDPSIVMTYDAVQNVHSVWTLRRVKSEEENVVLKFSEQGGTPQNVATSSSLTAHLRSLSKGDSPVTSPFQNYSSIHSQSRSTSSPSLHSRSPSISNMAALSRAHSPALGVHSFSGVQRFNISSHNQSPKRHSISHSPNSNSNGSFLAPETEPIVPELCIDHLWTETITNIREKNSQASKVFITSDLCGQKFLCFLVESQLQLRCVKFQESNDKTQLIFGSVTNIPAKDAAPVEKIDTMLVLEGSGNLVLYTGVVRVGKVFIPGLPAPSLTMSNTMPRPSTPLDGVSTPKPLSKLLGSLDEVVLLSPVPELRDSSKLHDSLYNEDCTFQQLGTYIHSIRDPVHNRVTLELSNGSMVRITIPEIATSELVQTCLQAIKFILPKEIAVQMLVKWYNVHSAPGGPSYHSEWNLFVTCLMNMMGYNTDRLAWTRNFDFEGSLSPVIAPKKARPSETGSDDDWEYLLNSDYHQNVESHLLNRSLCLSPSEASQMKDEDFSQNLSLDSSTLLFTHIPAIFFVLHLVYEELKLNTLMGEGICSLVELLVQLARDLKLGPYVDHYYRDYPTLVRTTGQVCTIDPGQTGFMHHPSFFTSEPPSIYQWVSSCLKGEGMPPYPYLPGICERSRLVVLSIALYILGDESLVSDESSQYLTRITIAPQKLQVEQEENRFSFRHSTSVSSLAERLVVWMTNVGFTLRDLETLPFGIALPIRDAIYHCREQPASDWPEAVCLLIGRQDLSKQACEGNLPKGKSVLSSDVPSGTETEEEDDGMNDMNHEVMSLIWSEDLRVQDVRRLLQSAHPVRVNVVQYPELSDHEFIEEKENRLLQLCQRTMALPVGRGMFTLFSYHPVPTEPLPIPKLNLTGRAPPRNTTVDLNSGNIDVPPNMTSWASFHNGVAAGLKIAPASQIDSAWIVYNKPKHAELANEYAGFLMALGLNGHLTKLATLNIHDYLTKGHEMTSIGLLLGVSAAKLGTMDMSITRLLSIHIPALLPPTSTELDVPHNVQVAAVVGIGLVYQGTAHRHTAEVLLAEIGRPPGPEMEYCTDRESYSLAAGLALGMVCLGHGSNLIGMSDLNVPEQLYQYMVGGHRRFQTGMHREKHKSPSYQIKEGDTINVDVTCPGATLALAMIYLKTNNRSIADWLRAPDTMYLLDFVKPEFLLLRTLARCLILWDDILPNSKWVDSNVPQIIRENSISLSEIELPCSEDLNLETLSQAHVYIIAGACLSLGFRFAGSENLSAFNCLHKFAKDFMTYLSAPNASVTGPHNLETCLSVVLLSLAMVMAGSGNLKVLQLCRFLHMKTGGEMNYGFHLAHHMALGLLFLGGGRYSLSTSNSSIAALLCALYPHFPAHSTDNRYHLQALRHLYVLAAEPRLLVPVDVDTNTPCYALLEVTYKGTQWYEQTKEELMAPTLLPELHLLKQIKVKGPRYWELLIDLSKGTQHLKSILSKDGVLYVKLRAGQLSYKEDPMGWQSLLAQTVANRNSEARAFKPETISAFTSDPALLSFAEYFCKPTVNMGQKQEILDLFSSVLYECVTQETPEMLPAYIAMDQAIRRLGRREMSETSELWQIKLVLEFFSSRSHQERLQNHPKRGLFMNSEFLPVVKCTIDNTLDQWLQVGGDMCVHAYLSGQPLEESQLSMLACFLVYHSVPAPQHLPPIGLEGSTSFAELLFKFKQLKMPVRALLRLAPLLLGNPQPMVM
AMFR, Q9UKV5, UniProt Q9UKV5, whole entry: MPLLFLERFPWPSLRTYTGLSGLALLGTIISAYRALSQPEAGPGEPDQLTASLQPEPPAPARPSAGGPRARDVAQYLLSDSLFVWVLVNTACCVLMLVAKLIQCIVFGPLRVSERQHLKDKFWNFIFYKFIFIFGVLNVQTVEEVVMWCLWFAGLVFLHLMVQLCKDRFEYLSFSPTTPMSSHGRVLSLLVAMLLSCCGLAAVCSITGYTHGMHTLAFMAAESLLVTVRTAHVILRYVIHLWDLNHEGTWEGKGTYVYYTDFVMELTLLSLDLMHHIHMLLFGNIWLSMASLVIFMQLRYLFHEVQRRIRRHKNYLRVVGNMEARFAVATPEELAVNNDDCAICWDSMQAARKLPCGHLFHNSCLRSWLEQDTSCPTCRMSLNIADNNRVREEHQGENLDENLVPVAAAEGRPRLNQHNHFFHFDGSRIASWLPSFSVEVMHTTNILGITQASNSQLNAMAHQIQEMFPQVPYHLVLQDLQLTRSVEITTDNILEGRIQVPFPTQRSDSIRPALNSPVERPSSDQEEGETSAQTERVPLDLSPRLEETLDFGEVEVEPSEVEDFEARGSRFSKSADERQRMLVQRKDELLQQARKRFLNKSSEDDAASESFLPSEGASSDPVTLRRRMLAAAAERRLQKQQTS
EXOSC4, Q9NPD3, UniProt Q9NPD3, whole entry: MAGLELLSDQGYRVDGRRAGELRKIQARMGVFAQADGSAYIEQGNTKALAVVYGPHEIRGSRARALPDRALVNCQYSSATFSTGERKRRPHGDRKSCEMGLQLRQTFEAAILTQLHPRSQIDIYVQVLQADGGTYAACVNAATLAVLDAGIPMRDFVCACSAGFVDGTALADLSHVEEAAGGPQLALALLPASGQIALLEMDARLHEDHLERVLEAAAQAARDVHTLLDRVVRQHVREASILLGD
HSP90AB2P, Q58FF8, UniProt Q58FF8, whole entry: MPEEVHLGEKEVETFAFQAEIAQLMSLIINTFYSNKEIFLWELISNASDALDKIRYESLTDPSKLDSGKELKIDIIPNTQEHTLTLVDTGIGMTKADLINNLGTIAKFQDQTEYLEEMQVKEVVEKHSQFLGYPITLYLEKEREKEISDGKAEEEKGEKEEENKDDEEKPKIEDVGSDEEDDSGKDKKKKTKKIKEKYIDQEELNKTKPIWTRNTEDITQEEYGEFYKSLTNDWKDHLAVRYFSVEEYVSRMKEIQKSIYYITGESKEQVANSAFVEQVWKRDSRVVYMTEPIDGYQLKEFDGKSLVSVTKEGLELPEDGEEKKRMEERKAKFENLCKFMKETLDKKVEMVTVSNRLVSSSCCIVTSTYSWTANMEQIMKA
NUP153, P49790, UniProt P49790, whole entry: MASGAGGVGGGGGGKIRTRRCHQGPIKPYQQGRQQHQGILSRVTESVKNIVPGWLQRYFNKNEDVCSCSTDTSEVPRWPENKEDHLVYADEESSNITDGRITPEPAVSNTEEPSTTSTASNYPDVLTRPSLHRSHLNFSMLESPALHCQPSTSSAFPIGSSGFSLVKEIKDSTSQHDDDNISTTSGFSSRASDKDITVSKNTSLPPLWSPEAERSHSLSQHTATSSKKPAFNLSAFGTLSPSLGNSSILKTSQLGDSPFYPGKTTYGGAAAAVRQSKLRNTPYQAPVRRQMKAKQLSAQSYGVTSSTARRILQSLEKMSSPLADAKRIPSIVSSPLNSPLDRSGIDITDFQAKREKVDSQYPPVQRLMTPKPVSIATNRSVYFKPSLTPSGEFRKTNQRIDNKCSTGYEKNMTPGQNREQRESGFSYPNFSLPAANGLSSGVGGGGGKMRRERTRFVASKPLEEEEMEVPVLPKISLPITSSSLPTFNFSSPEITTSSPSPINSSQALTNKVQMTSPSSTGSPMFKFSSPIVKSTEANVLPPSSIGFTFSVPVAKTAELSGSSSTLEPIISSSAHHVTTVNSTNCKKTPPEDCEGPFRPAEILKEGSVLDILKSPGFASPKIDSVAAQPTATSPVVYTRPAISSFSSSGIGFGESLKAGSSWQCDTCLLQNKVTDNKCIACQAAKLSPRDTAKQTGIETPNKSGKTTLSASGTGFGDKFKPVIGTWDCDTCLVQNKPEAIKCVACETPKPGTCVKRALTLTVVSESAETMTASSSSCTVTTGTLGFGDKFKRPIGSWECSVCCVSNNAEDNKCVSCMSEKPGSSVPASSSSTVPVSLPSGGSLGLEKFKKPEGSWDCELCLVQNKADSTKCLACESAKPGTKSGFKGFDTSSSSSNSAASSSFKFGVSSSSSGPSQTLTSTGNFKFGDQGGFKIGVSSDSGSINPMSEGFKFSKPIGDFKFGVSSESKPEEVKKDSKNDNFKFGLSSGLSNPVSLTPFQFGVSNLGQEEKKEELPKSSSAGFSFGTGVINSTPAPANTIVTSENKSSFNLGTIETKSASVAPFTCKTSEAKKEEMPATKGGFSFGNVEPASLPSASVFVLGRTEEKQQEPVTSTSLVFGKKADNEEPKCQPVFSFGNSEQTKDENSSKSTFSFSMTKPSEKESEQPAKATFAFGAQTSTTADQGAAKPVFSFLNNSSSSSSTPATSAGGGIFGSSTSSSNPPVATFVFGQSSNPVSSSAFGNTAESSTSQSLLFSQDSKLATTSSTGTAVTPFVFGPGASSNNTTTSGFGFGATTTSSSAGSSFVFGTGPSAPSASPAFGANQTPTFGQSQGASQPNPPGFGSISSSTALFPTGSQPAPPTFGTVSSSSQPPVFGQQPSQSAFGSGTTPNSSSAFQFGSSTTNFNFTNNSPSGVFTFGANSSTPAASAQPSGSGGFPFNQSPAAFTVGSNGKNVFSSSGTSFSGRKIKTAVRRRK

The list shows a part of the results. Only hits are listed; about a third recur on repeated control peptides.

Common to all, as to assay: PRISMA enrichment of interactor (LFQ) in peptide spot vs all other peptide spots (log2 fold change); higher = stronger / more specific binding of the interactor to the peptide
In experiment [1] the target is AMOT, Q4VCS5. As for the experimental part:
(§1)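 PRISMA: 15-aa overlapping tiles (offset 8 aa) of 60 microproteins, plus SOS1/GLUT1 control peptides, were spot-synthesized on cellulose membranes in triplicate. Membranes were incubated with benzonase-treated HEK293T lysate, and bound proteins were identified by LC-MS/MS with LFQ. Enrichment is the log2 fold change of each protein in one spot versus all other spots. Only interactors passing the significance cutoff are listed.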

The target of experiment [2] is APOL1, O14791. As for the experimental part: as §1
Experiment [3] addresses CCDC47, Q96A33. As for the experimental part:
as §1

Experiment [4] deals with CLTA, P09496. As for the experimental part: as §1
In experiment [5] the target is DDX54, Q8TDD1. As for the experimental part:
as §1

Experiment [6] has as its target DYNLRB1, Q9NP97. As for the experimental part:
as §1

Experiment [7] concerns the target FLNA, P21333. As for the experimental part: as §1
Experiment [8] has as its target GATAD2A, Q86YP4. As for the experimental part: as §1
The target in experiment [9] is GTF2E2, P29084. As for the experimental part:
as §1

Experiment [10] has as its target HADHA, P40939. As for the experimental part:
as §1

Experiment [11] has as its target HUWE1, Q7Z6Z7. As for the experimental part:
as §1

Experiment [12] deals with KIF20A, O95235. As for the experimental part:
as §1

For experiment [13], the target named is KNOP1, Q1ED39. As for the experimental part: as §1
For experiment [14], the target named is KTN1, Q86UP2. As for the experimental part: as §1
The target of experiment [15] is OSGEP, Q9NPF4. As for the experimental part:
as §1

For experiment [16], the target named is OXSR1, O95747. As for the experimental part:
as §1

The target in experiment [17] is PHAX, Q9H814. As for the experimental part: as §1
The target of experiment [18] is PSMC5, P62195. As for the experimental part:
as §1

The target of experiment [19] is PUM1, Q14671. As for the experimental part:
as §1

The target in experiment [20] is RPUSD3, Q6P087. As for the experimental part: as §1
Experiment [21] concerns the target TP53, P04637. As for the experimental part:
as §1

In experiment [22] the target is TRABD, Q9H4I3. As for the experimental part:
as §1

Experiment [23] deals with TWF1, Q12792. As for the experimental part:
as §1

Experiment [24] deals with ANAPC1, Q9H1A4. As for the experimental part:
as §1

For experiment [25], the target named is CYC1, P08574. As for the experimental part:
as §1

Experiment [26] has as its target DDX19A, Q9NUU7. As for the experimental part: as §1
Experiment [27] addresses DECR2, Q9NUI1. As for the experimental part:
as §1

The target of experiment [28] is GNG12, Q9UBI6. As for the experimental part:
as §1

In experiment [29] the target is GTF3C3, Q9Y5Q9. As for the experimental part:
as §1

In experiment [30] the target is STOM, P27105. As for the experimental part:
as §1

Experiment [31] addresses AMFR, Q9UKV5. As for the experimental part:
as §1

Experiment [32] concerns the target AP3S1, Q92572. As for the experimental part:
as §1

Experiment [33] has as its target ASF1B, Q9NVP2. As for the experimental part:
as §1

The target of experiment [34] is CALML5, Q9NZT1. As for the experimental part:
as §1

Experiment [35] concerns the target CCAR1, Q8IX12. As for the experimental part:
as §1

For experiment [36], the target named is CCDC137, Q6PK04. As for the experimental part: as §1
Experiment [37] concerns the target DDX52, Q9Y2R4. As for the experimental part: as §1
Experiment [38] has as its target EXOSC4, Q9NPD3. As for the experimental part: as §1
Experiment [39] has as its target GNL3L, Q9NVN8. As for the experimental part:
as §1

For experiment [40], the target named is HSP90AB2P, Q58FF8. As for the experimental part: as §1
Experiment [41] concerns the target INTS11, Q5TA45. As for the experimental part:
as §1

Experiment [42] addresses MRPS15, P82914. As for the experimental part: as §1
Experiment [43] deals with MYCBP2, O75592. As for the experimental part:
as §1

Experiment [44] concerns the target MYO1B, O43795. As for the experimental part:
as §1

For experiment [45], the target named is NCLN, Q969V3. As for the experimental part:
as §1

Experiment [46] addresses NOP53, Q9NZM5. As for the experimental part: as §1
The target in experiment [47] is NTPCR, Q9BSD7. As for the experimental part:
as §1

Experiment [48] addresses NUP153, P49790. As for the experimental part:
as §1

The target in experiment [49] is PDF, Q9HBH1. As for the experimental part: as §1
Experiment [50] addresses RSF1, Q96T23. As for the experimental part: as §1
Experiment [51] concerns the target SURF6, O75683. As for the experimental part: as §1
In experiment [52] the target is TIMM8A, O60220. As for the experimental part: as §1
In experiment [53] the target is TMEM41B, Q5BJD5. As for the experimental part:
as §1

The target in experiment [54] is UNC45A, Q9H3U1. As for the experimental part: as §1
In experiment [55] the target is UTP20, O75691. As for the experimental part: as §1
In experiment [56] the target is ZC3H11A, O75152. As for the experimental part:
as §1

Experiment [57] addresses AMMECR1, Q9Y4X0. As for the experimental part:
as §1

Experiment [58] has as its target GPI, P06744. As for the experimental part:
as §1

Experiment [59] deals with NUP155, O75694. As for the experimental part: as §1
Experiment [60] addresses PDCL3, Q9H2J4. As for the experimental part:
as §1

The target in experiment [61] is TRMT112, Q9UI30. As for the experimental part: as §1

For TSTSAPNTLRRTALS [THAP7], the “PRISMA enrichment of interactor (log2)” value turned out to be 5.8 in experiment [1]; 4.47 in experiment [2]; 6.93 in [3]; 6.95 in [4]; 6.93 in experiment [5]; 4.8 in experiment [6]. For the same molecule, the “PRISMA enrichment of interactor (log2)” value in [7] was found to be 4.62; in [8] it was 5.01; in [9], 4.71; in experiment [10], 4.89; in [11], 5.93; in experiment [12], 6.89. The “PRISMA enrichment of interactor (log2)” value amounted to 6.74 in [13]; 4.67 in experiment [14]; 6.41 in experiment [15]; 6.52 in [16]; 5.3 in experiment [17]; 5.01 in [18]. The “PRISMA enrichment of interactor (log2)” value in experiment [19] was found to be 5.58; in [20], 5.35; in [21] it was 4.02; in experiment [22], 4.62; in experiment [23], 4.05.
Regarding SWCRRADARLLDTCR [CTD-2366F13.1], the “PRISMA enrichment of interactor (log2)” value amounted to 4.76 in experiment [24]; 4.86 in experiment [25]; 7.18 in experiment [26]; 4.85 in experiment [27]; 4.03 in [28]; 5.82 in experiment [29]. In experiment [30], the “PRISMA enrichment of interactor (log2)” value is 7.66.
On to NLNLSSPGIQLQQLR [EBAG9], for which the “PRISMA enrichment of interactor (log2)” value in [31] amounted to 8.67; in [32], 6.48; in [33], 3.88; in experiment [34] it was 3.93; in experiment [35], 7.82; in [36], 6.09. Also, the “PRISMA enrichment of interactor (log2)” value in experiment [37] was determined as 5.49; in [27], 5.02; in experiment [38], 4.05; in experiment [39] it was 6.09; in experiment [40], 4.21; in experiment [41] it was 4.84. In addition, the “PRISMA enrichment of interactor (log2)” value amounted to 5.43 in experiment [13]; 7.34 in experiment [42]; 4.15 in experiment [43]; 4.8 in [44]; 5.89 in experiment [45]; 5.88 in experiment [46]. The “PRISMA enrichment of interactor (log2)” value in experiment [47] was 6.61; in [48], 5.51; in experiment [49], 4.56; in experiment [50], 4.64; in experiment [51], 4.67; in experiment [52] it was 4.16. Further, the “PRISMA enrichment of interactor (log2)” value is 5.64 in experiment [53], 4.38 in experiment [54], 5.14 in experiment [55] and 4.17 in experiment [56].
For the molecule RSGEQKKGVFIRFLI [RP11-644F5.11], the “PRISMA enrichment of interactor (log2)” value in experiment [57] was 5.07; in [58] it was 5.14; in [59] it was 5.12; in experiment [60], 8.83; in experiment [61], 6.37.
